Read-outs that look alike come from different tables or passages of the source. At least one structure is not confirmed: it was looked up by name or label, or the drawing left a doubt.
Key:
OE21 = system: OE21
Procedure: (§1) Morphological features of cells treated with 5-fluorouracil (5-FU)/cisplatin, without and with 3-MA, LY294002, Bafilomycin, Lithium chloride, rapamycin or HA14-I were examined by light microscopy. Morphologies of treated cells were examined 24 and 48 hours post treatment, treatment times are referred to in figure legends. Aliquots of vehicle control and drug treated cells were cytospun onto glass slides and stained with Rapi-Diff (Braidwood laboratories, UK). The extent of apoptotic and non-apoptotic cell death was determined by counting the cells in at least three fields of view per slide, with an average of ˜100 cells per field. Apoptotic cell death is characterized by the presence of two or more of the following morphological features: cell shrinkage, chromatin condensation, DNA degradation and fragmentation into ‘apoptotic bodies’, within an intact plasma membrane. Autophagic cell death was identified by clear elevation of cytoplasmic vesicles, loss of cytoplasmic material, pyknosis of the nuclear material and an intact nuclear membrane. Cytospin images are representative of at least three independent experiments.

phospho Akt = assay: Western blot with anti-phospho Akt; type: cell-based, human; conditions: LY294002 10/25 μM for 48 hours; all four oesophageal cell lines
KYSE450 = assay: Evaluation of cell death morphology by light microscopy; type: cell-based, human
Procedure: as §1

LC3 in OE33 cells = assay: LC3 / GFP-LC3 processing and distribution (Western blot, fluorescence microscopy); type: cell-based, human; conditions: rapamycin (data not shown)
Procedure: (§2) Total cellular protein extracts were prepared by scraping the cells into modified RIPA buffer (50 mM Tris HCl (pH 7.4), 150 mM NaCl, 0.25% Sodium deoxycholate, 1% Igepal, protease inhibitors 1 mM EDTA, 1× Pefabloc, 1× protease inhibitor cocktail, 1 mM Na3VO4, 1 mM NaF). All protein samples were separated by SDS-PAGE (10/12%) and electrophoretically transferred onto nitrocellulose membrane. All primary antibodies were incubated overnight at 4° C.: anti-phospho mTOR (Ser 2448) and anti-p70^S6K (Thr 389) (Cell Signaling Technologies, UK), anti-Beclin-1 (BD Biosciences, UK) and anti-LC3 (Medical & Biological Laboratories, Japan). The membranes were incubated with the relevant horseradish peroxidase conjugated secondary antibodies (DakoCytomation, Dublin) and detected by chemiluminescence (ECL Amersham, UK).
(§3) To visualize and quantify the formation of autophagic vesicles, the green fluorescent protein (GFP)-LC3 (pEGFP-LC3) expression vector, kindly supplied by Dr. T. Yoshimori (National Institute of Genetics, Japan) was used. Cells were transiently transfected with the Amaxa electroporation system according to the supplier's protocol. Twenty-four hours post transfection, cells were treated with 5-FU and/or Cisplatin, fixed in 4% paraformaldehyde in PBS and transferred onto slides using a non-fluorescent fixative for analysis by fluorescence microscopy. Alternatively, Western Blot analysis was used to assess the expression and processing of LC3. […] The membrane sequestered, lipid-conjugated form of LC3-II remains with the autophagosome membrane after the vesicle has formed, and levels of both isoform are detected by Western Blot. Transfection efficiency was consistent for a given cell line, OE33 and KYSE450 cell lines (˜60-70%) compared to OE19 and OE21 cell lines (˜30%).

LC3 in KYSE450 cells = assay: as above; type: cell-based, human; conditions: rapamycin 200/400 nM, 48 hours
Procedure: as §2, §3

LC3 in OE21 cells = assay: as above; type: cell-based, human; conditions: rapamycin (data not shown)
Procedure: as §2, §3

| SMILES | morphology (OE21; LY294002 (25 μM) alone or with 5-FU (30 μM)) | phosphorylation of Akt (phospho Akt) | morphology (KYSE450; LY294002 (25 μM) alone or with 5-FU (50 μM)) | changes in Beclin1 or LC3 II (LC3 in OE33 cells) | LC3 processing and Beclin1 levels (Western blot) (LC3 in KYSE450 cells) | changes in Beclin1 or LC3 II (LC3 in OE21 cells) | morphology (OE21; rapamycin (400 nM) without and with 5-FU (30 μM)) | morphology (KYSE450; rapamycin (400 nM) without and with 5-FU (50 μM)) |
| --- | --- | --- | --- | --- | --- | --- | --- | --- |
| O=c1cc(N2CCOCC2)oc2c(-c3ccccc3)cccc12 [LY294002] | predominantly autophagic | reduced phosphorylation of Akt | predominantly autophagic |  |  |  |  |  |
| CO[C@H]1C[C@@H]2CC[C@@H](C)[C@@](O)(O2)C(=O)C(=O)N2CCCC[C@H]2C(=O)O[C@H]([C@H](C)C[C@@H]2CC[C@@H](O)[C@H](OC)C2)CC(=O)[C@H](C)/C=C(\C)[C@@H](O)[C@@H](OC)C(=O)[C@H](C)C[C@H](C)/C=C/C=C/C=C/1C [rapamycin, Rapamycin] |  |  |  | fail to induce changes in Beclin1 or LC3 II | induction of LC3 processing and increased levels of Beclin1 | fail to induce changes in Beclin1 or LC3 II | predominant apoptotic cell death response | induction of autophagy with single agent treatment |
